Measurements published in paper doi:10.1101/2023.07.16.549182.
Results are given in words; binding and its absence hold for the method and conditions named. In cells and extracts the contact can be indirect. Some entries that bind do so weakly or less than the wild type.

Amino acid sequences for entries named in this document (tags omitted).
UniProt Q06210: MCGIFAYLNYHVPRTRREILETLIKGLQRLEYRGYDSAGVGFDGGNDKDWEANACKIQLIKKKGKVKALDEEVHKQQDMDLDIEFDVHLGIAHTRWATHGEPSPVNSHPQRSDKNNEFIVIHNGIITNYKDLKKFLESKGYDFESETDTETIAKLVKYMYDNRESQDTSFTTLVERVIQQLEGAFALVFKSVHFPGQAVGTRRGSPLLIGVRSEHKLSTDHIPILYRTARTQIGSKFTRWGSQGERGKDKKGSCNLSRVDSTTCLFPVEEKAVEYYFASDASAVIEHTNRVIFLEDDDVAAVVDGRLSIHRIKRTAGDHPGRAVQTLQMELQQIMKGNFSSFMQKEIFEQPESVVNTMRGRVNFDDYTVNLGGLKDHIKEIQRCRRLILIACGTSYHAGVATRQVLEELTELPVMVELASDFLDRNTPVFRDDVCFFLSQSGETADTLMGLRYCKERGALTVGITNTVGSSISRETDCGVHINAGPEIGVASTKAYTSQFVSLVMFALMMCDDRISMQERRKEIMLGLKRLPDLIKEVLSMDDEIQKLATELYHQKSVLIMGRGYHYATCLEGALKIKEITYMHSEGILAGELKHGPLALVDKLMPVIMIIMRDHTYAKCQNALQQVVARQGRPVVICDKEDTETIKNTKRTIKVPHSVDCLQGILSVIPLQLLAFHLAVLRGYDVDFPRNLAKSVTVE

Target: T1, TAK1 binding protein 1 (UniProt Q15750)
T1 sequence: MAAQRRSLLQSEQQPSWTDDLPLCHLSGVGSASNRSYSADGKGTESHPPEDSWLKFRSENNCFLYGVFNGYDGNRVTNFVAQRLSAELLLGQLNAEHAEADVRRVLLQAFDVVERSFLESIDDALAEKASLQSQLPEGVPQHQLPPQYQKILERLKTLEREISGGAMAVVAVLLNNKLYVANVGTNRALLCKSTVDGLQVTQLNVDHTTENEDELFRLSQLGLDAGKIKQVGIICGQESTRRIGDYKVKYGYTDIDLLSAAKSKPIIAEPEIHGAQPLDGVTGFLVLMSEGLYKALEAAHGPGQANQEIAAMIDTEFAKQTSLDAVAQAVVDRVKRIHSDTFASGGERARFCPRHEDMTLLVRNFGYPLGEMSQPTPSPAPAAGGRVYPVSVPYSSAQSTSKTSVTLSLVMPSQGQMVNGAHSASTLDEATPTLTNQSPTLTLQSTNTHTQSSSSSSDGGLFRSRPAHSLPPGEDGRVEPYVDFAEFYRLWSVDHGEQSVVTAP
Test: co-IP

binding: binds
Substance: glutamine-fructose-6-phosphate aminotransferase 1 (from UniProt Q06210 1-699) (enzyme)
